{
  "source": "PubChem BioAssay AID504834",
  "about": "(National Center for Advancing Translational Sciences (NCATS), 2011)",
  "note": "Screen size: about 320,000 compounds; about 22,000 (6.9%) were called active. Inconclusive results, whose numbers are uncertain, are shown with a selection of clear calls. Calls follow the shape of the dose curve; as a rule, active = well fitted inhibition curve with a large enough effect; inconclusive = small, poorly fitted or top-dose-only effect, or another doubt; inactive = no such curve, though single readings can be large or run the other way. A potency beside an inconclusive call is a rough fit, not a confirmed value. Potency is read from the fitted curve at half-maximal effect.",
  "data": [
    {"experiment": "Primary qHTS for delayed death inhibitors of the malarial parasite plastid, 96 hour incubation", "conditions": "P. falciparum luciferase reporter growth; series mostly up to 28.7 µM", "outline": "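Parasite growth measured via integrated firefly luciferase reporter in P. falciparum. Infected erythrocytes at 2% hematocrit, 0.05% parasitemia final were treated 96 hours at 37 C under 5% CO2, and luminescence was read.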", "values": [
      {"smiles": "CCOC(=O)c1sc(NC(=O)CSc2nnc(-c3ccc(OC)cc3)n2CCOC)nc1C", "Potency": "active: 13.1 µM"},
      {"smiles": "CC(C)N(C(=O)Cn1cnc2cc([N+](=O)[O-])ccc2c1=O)C(C)C", "Potency": "inconclusive: 2.94 µM [inhibitor, partial curve]"},
      {"smiles": "CC1(C)C/C(=N\\O)C(C(O)c2cccc([N+](=O)[O-])c2)C(C)(C)N1", "note": "(stereo unspecified)", "Potency": "inconclusive: 9.28 µM [inhibitor, single point]"},
      {"smiles": "Cc1c(C(=O)N2CCCCCC2)c(S(=O)(=O)Nc2cccc(F)c2)c(C)n1C", "Potency": "inactive"},
      {"smiles": "CC(=O)NC(CC(=O)NC(C)c1ccc(Cl)cc1Cl)c1ccccc1", "note": "(stereo unspecified)", "Potency": "inactive"},
      {"smiles": "O=C(CSc1nc2ccccc2c(=O)[nH]1)N1CCN(c2ccccc2)CC1", "Potency": "inconclusive: 4.15 µM [inhibitor, single point]"},
      {"smiles": "Oc1ccc(NCc2cccs2)cc1", "Potency": "inconclusive: 0.0738 µM [inhibitor, full curve]"},
      {"smiles": "Cc1cc(C(=O)OC(C)C(=O)NC2CCCCC2C)c(C)o1", "note": "(stereo unspecified)", "Potency": "inactive"},
      {"smiles": "CC(=O)Nc1ccc(S(=O)(=O)N(C)CC(=O)OC(C)C(=O)N(C)C2CCCCC2)cc1", "note": "(stereo unspecified)", "Potency": "inactive"},
      {"smiles": "O=c1c(-c2ccc(Cl)cc2)cnc2n1CCS2", "Potency": "inactive"},
      {"smiles": "COc1ccc(CNCCC(c2ccc(F)cc2)c2ccc(OC)cc2)cc1", "note": "(stereo unspecified)", "Potency": "inconclusive: 18.5 µM [inhibitor, single point]"},
      {"smiles": "CCCCc1ccc(NC(=O)CSc2nc(=O)n(CCN(C)C)c3c2CCC3)cc1", "Potency": "inconclusive: 18.5 µM [inhibitor, single point]"},
      {"smiles": "COc1ccc(OCCNS(=O)(=O)Cc2ccccc2)cc1", "Potency": "inconclusive: 10.4 µM [inhibitor, single point]"},
      {"smiles": "COc1cccc(C(=O)NCCS(=O)(=O)N2CCN(C(=O)c3ccco3)CC2)c1", "Potency": "inconclusive: 18.5 µM [inhibitor, single point]"},
      {"smiles": "O=C(NCC1CCCO1)c1c(O)c2c([nH]c1=O)CCCC2", "note": "(stereo unspecified)", "Potency": "inconclusive: 10.4 µM [inhibitor, partial curve, poor fit]"},
      {"smiles": "CCCC(C(=O)Nc1ccc(C)c(S(=O)(=O)N2CCOCC2)c1)c1ccccc1", "note": "(stereo unspecified)", "Potency": "inconclusive: 10.4 µM [inhibitor, single point]"},
      {"smiles": "Cc1ccc2nc(N/N=C/c3ccccc3F)nc(-c3ccccc3)c2c1", "Potency": "inconclusive: 10.4 µM [inhibitor, single point]"},
      {"smiles": "Cc1cccc(NC(=O)c2cccc(N3C(=O)CCC3=O)c2)c1", "Potency": "inactive"},
      {"smiles": "CCOC(=O)c1ccc(NC(=S)NCCc2ccc(OC)c(OC)c2)cc1", "Potency": "active: 10.4 µM"},
      {"smiles": "N#Cc1ccc(OCC(=O)N(C2CCCCC2)C2CCS(=O)(=O)C2)cc1", "note": "(stereo unspecified)", "Potency": "inactive"},
      {"smiles": "CCSc1ncccc1-c1nc2ccccc2[nH]1", "Potency": "inconclusive: 0.0828 µM [inhibitor, full curve, poor fit]"},
      {"smiles": "CCCN(C(=O)CSc1ncnc2sccc12)c1c(N)n(Cc2ccccc2)c(=O)[nH]c1=O", "Potency": "inconclusive: 11.7 µM [inhibitor, single point]"},
      {"smiles": "COc1cc2c(cc1OC)C1O[C@](CCCCN3C(=O)c4ccccc4C3=O)(C2)OC2=C1C(=O)c1ccccc1C2=O", "Potency": "active: 0.338 µM"},
      {"smiles": "O=C(CCCCn1c(=O)c2ccccc2n(Cc2ccccc2)c1=O)NC1CCN(Cc2ccccc2)CC1", "Potency": "inactive"},
      {"smiles": "C=CCOc1c(Br)cc(C2C3=C(CCCC3=O)N(C)C3=C2C(=O)CCC3)cc1OCC", "Potency": "inactive"},
      {"smiles": "CCN(CC(=O)NCc1ccc(Cl)cc1)C(=O)CNS(=O)(=O)c1ccc(NC(C)=O)cc1", "Potency": "inconclusive: 16.5 µM [inhibitor, single point]"},
      {"smiles": "Cc1cc(C)n(CC(=O)N/N=C/c2cc([N+](=O)[O-])ccc2O)n1", "Potency": "inactive"},
      {"smiles": "O=C(O)Cc1sc(N/N=C\\c2ccccc2)nc1-c1ccccc1", "Potency": "inconclusive: 18.5 µM [inhibitor, single point]"},
      {"smiles": "C[C@H](NC(=O)c1nc[nH]c1C(=O)N[C@@H](Cc1ccccc1)C(=O)OC(C)(C)C)C(=O)OC(C)(C)C", "Potency": "inconclusive: 2.62 µM [inhibitor, full curve, poor fit]"},
      {"smiles": "O=C(c1ccncc1)N1N=C(c2ccc(Br)cc2)CC1c1ccccc1O", "note": "(stereo unspecified)", "Potency": "inconclusive: 7.38 µM [inhibitor, partial curve]"},
      {"smiles": "CSc1ccccc1NC(=O)Cc1ccccc1", "Potency": "inactive"},
      {"smiles": "CC(=O)Nc1ccc(-c2nc3ccccc3o2)cc1", "Potency": "inactive"},
      {"smiles": "COc1cc(OC)cc(OC(=O)C2CCN(C(=O)c3ccc(Cl)cc3)CC2)c1", "Potency": "inactive"},
      {"smiles": "CCc1ccccc1OCC(=O)Nc1cccc(S(=O)(=O)NC2=NCCC2)c1", "Potency": "inconclusive: 4.15 µM [inhibitor, partial curve, poor fit]"},
      {"smiles": "O=C(CNC(=O)c1cccc(Br)c1)NCCc1nc2ccccc2[nH]1", "Potency": "inactive"},
      {"smiles": "Cn1c(=O)n(C)c2cc([N+](=O)[O-])c(N3CCN(C(=O)c4ccc(Cl)cc4)CC3)cc21", "Potency": "inconclusive: 0.0657 µM [inhibitor, full curve, poor fit]"},
      {"smiles": "Cc1ccccc1Oc1cc(-n2ncc(Cl)c(Cl)c2=O)ncn1", "Potency": "inactive"},
      {"smiles": "COc1cccc(C(=O)OCC(=O)Nc2sc3c(c2C(N)=O)CCC3)c1O", "Potency": "inconclusive: 0.329 µM [inhibitor, partial curve, poor fit]"},
      {"smiles": "CCCc1cc2c(=O)c(-c3ccccn3)coc2cc1OC", "Potency": "inactive"},
      {"smiles": "COc1ccc(OC)c(C2=NOC(C(=O)Nc3cccnc3)C2)c1", "note": "(stereo unspecified)", "Potency": "active: 11.7 µM"},
      {"smiles": "Cc1ccc(S(=O)(=O)/N=C(\\N)Nc2nc(C)c3cc(C)c(C)cc3n2)cc1", "Potency": "inconclusive: 18.5 µM [inhibitor, single point]"},
      {"smiles": "Cc1ccc(Cn2nnc3c(=O)[nH]c(C4CCN(S(=O)(=O)c5ccccc5)CC4)nc32)cc1", "Potency": "inactive"},
      {"smiles": "Cc1cc(C)n2nc(SCC(=O)N3CCN(c4ccc(F)cc4)CC3)nc2n1", "Potency": "active: 6.57 µM"},
      {"smiles": "CCOc1ccc(S(=O)(=O)Nc2c(C)n(C)n(-c3ccccc3)c2=O)cc1", "Potency": "inconclusive: 20.8 µM [inhibitor, partial curve, poor fit]"},
      {"smiles": "CN(C)S(=O)(=O)c1cccc(C(=O)OCC(=O)c2ccc3c(c2)NC(=O)CO3)c1", "Potency": "inactive"},
      {"smiles": "Cc1cc(C)cc(N(CC(=O)Nc2c(C)n(C)n(-c3ccccc3)c2=O)S(C)(=O)=O)c1", "Potency": "inconclusive: 4.15 µM [inhibitor, partial curve, poor fit]"}
    ]}
  ]
}
